The supplement of paper PMC10849652
The other results are listed elsewhere or left out.

Chains of the proteins cited; added tags and fusions are not shown. Lines headed by an entry give the natural chain unless they say otherwise; changes in a name come on top.
UniProt P49748: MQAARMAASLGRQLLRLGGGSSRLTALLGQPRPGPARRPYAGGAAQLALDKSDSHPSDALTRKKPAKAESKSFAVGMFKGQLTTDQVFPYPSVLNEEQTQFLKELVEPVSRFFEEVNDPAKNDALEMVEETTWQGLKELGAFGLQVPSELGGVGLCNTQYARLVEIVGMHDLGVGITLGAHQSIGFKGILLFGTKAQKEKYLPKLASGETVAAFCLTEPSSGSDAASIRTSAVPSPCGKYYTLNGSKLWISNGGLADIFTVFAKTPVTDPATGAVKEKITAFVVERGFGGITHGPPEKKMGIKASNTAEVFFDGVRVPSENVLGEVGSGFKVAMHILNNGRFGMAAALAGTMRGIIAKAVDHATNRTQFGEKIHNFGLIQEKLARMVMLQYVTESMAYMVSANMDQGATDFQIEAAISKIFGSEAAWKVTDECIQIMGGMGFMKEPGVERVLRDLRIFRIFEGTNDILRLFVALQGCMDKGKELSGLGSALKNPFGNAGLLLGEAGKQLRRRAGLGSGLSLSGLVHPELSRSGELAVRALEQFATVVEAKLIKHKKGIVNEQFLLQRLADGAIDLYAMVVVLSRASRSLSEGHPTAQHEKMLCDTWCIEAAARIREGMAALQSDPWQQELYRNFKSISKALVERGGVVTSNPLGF
UniProt Q9BV23: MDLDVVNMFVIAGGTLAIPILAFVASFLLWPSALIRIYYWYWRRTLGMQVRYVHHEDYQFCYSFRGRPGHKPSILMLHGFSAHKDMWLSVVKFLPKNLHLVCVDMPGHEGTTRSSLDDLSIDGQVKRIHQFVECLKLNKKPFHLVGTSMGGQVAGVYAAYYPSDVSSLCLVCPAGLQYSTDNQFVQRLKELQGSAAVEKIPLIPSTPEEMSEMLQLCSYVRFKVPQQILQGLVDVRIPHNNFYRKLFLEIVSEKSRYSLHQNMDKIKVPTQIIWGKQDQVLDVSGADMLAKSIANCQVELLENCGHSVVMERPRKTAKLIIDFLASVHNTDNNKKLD
UniProt P24666: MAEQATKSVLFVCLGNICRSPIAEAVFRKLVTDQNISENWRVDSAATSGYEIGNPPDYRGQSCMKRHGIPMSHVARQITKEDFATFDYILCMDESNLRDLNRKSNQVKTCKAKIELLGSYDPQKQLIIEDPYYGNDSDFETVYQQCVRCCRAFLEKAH
UniProt Q04771: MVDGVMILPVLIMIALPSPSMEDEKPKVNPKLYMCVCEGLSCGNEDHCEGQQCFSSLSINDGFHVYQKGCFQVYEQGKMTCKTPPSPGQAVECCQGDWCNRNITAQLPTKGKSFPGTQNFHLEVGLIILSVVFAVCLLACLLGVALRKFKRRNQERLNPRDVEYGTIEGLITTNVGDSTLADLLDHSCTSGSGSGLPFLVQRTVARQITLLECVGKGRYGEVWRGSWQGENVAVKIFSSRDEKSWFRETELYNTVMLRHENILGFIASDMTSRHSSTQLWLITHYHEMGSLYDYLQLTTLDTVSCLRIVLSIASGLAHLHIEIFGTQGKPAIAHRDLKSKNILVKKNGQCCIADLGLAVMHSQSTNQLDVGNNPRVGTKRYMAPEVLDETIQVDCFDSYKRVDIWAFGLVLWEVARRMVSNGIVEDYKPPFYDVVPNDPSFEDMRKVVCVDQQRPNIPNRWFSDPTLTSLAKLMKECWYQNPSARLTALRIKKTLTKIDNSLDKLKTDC
UniProt Q9ULC5: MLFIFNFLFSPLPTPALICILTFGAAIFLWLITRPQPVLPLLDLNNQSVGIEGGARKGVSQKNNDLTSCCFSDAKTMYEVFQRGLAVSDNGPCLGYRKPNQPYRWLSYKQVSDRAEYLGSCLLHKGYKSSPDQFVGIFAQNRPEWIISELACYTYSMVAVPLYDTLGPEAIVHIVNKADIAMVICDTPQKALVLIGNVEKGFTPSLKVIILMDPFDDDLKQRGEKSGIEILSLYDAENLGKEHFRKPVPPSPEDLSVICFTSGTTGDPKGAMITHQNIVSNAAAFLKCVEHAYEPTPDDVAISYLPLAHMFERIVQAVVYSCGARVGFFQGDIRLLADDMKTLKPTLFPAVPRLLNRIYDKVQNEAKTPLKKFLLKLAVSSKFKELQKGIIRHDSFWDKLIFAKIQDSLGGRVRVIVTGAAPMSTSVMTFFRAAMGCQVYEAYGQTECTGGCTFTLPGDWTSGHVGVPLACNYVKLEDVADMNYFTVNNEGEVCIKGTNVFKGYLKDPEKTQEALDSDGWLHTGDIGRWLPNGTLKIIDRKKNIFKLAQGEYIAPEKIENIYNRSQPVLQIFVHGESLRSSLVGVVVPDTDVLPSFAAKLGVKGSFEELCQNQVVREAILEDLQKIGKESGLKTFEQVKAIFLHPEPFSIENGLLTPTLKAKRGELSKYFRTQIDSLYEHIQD
UniProt O95870: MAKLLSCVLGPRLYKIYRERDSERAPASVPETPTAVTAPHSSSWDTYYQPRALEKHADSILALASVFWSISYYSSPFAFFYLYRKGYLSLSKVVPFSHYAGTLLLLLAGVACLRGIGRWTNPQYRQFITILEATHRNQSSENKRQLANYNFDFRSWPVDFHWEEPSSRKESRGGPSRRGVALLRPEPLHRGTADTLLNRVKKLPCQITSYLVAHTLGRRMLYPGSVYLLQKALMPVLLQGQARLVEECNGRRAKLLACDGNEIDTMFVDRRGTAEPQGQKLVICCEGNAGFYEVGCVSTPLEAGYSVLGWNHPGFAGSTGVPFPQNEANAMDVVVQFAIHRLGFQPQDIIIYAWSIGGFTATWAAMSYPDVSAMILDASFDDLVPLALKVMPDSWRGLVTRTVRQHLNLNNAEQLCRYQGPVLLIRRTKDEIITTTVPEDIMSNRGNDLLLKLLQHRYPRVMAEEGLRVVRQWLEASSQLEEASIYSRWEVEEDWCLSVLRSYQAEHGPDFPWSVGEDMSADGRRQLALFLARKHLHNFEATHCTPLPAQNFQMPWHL
UniProt Q6UWZ7: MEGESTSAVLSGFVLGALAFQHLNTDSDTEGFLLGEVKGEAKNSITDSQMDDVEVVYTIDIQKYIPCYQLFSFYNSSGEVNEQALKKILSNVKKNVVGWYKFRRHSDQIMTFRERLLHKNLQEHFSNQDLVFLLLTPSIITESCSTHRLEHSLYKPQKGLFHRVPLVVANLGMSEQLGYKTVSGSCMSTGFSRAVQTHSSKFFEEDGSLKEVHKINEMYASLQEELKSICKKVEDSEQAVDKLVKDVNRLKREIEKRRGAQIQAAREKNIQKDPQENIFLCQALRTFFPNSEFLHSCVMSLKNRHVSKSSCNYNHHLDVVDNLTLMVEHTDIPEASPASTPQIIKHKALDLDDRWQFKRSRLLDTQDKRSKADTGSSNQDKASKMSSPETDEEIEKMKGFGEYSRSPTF
UniProt Q9Y312: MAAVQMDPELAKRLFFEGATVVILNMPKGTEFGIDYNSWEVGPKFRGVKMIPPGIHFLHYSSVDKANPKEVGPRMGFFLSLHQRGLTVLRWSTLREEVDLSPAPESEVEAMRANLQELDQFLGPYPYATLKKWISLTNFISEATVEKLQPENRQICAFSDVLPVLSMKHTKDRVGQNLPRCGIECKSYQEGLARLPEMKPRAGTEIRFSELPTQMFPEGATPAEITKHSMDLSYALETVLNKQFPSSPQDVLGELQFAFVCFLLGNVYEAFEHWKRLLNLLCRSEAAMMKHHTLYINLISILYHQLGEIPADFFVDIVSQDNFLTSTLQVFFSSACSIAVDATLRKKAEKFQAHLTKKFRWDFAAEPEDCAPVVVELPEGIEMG
UniProt P11117: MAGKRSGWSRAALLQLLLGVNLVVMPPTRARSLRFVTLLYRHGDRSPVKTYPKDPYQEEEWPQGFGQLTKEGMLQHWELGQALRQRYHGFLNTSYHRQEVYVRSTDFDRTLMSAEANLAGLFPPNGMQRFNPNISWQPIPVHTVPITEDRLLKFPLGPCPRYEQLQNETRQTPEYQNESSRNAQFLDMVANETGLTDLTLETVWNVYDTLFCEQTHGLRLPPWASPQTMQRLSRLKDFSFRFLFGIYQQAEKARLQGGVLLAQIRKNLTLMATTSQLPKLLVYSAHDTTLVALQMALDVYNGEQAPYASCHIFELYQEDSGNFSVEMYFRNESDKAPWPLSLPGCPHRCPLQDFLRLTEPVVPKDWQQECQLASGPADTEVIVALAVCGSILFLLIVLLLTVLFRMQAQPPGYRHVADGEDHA
UniProt Q6JQN1: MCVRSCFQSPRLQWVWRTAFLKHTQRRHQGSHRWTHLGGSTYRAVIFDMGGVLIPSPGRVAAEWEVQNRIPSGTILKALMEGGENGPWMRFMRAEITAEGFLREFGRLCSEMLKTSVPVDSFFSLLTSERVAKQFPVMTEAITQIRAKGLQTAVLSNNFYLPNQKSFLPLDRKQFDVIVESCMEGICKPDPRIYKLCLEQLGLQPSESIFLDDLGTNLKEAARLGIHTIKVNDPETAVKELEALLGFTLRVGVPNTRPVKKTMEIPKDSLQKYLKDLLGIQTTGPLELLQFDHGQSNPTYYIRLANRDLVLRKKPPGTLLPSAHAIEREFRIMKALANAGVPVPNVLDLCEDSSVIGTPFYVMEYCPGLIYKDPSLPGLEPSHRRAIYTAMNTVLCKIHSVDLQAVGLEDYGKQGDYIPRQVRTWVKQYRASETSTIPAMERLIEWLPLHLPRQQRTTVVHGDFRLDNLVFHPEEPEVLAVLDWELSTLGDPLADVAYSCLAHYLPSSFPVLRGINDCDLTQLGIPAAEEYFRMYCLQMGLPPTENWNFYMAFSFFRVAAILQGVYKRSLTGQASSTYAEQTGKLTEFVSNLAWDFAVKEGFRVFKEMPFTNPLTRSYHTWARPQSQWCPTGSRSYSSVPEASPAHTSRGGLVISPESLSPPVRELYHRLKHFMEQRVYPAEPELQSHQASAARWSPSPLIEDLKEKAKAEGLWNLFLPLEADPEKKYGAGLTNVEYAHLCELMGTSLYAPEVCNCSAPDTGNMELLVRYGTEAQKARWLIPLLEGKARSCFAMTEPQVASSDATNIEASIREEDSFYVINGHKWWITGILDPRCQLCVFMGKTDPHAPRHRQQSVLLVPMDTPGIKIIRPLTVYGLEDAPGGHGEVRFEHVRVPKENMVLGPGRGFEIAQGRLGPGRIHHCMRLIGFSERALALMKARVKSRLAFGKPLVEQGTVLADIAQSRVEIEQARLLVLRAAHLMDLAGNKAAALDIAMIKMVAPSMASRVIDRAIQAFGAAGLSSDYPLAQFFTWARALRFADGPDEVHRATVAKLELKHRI
UniProt Q2M3G0: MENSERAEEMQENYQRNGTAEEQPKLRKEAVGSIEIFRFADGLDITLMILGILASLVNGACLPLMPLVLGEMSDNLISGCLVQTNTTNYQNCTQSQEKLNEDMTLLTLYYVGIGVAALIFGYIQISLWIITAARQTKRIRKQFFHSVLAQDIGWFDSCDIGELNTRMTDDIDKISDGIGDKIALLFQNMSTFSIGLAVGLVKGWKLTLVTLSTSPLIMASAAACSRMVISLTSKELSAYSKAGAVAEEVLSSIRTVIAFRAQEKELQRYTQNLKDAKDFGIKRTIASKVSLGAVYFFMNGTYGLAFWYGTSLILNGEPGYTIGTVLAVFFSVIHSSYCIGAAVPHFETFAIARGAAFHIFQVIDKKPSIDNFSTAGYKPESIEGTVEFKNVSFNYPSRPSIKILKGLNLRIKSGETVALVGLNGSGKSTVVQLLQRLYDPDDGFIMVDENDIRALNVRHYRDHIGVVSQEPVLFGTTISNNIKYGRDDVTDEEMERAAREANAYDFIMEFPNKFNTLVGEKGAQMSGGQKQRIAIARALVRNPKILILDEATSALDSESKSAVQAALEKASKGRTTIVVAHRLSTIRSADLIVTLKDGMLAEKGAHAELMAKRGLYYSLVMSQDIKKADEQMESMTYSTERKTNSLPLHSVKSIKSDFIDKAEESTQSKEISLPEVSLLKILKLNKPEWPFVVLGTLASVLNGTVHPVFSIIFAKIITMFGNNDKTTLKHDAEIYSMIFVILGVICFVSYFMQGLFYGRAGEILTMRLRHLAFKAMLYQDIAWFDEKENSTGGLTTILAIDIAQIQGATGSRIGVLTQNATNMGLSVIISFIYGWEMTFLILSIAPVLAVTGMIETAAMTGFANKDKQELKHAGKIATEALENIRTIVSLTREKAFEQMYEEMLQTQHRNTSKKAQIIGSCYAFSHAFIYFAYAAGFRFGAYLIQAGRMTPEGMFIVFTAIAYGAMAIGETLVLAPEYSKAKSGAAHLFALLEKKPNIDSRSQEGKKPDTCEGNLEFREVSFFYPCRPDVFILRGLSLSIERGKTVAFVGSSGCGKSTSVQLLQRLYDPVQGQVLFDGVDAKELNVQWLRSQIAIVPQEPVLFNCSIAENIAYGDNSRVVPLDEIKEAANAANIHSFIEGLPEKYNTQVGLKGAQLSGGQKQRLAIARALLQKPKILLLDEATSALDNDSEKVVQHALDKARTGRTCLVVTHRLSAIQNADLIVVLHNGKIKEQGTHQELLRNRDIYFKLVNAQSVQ
UniProt Q9P1F3: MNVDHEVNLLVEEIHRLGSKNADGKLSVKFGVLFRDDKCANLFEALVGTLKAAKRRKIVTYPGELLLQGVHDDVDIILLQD

What was measured:
Test in all cases: log2 fold change, soluble protein after heating vs DMSO (PISA); higher = thermal stabilisation; K562 cells, 10 uM, 30 min; active = over 0.2 and 3.5 SD of the protein, either way, in both replicates (recomputed)
[1] = compound: CC[C@@H]1C(=O)N(C)c2cnc(Nc3ccc(C(=O)NC4CCN(C)CC4)cc3OC)nc2N1C1CCCC1
How it was run: (§1)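 Quantification of soluble protein used TMTpro 16plex LC-MS/MS, with channel sums equalised. Samples were the supernatant after 21,000xg for 90 min of pooled aliquots from K562 cells (2×10^6 cells/mL) treated with 10 μM compound for 30 min, heated for 3 min over 48°C-58°C, and extracted in PBS with 0.5% NP-40 at 4°C. Values, from duplicates, describe thermal stability against control samples on a log2 fold-change scale.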

volasertib = compound: CC[C@@H]1C(=O)N(C)c2cnc(Nc3ccc(C(=O)N[C@H]4CC[C@H](N5CCN(CC6CC6)CC5)CC4)cc3OC)nc2N1C(C)C [volasertib]
How it was run: as §1

epoxomicin = compound: CC[C@H](C)[C@@H](C(=O)N[C@@H]([C@@H](C)O)C(=O)N[C@@H](CC(C)C)C(=O)[C@]1(CO1)C)NC(=O)[C@H]([C@@H](C)CC)N(C)C(=O)C [epoxomicin]
How it was run: as §1

[2] = compound: CCn1c(C(=O)N(C2CC2)C2CC2)cc2c3c(ncn3C)c(Nc3cc(C)n(C)n3)nc21
How it was run: as §1

[3] = compound: CCn1cc(-c2ccnc3[nH]c(-c4cccc(CN(C)C)c4)cc23)c(-c2ccc(NC(=O)N(C)C)cc2)n1
How it was run: as §1

rosiglitazone = compound: CN(CCOC1=CC=C(C=C1)C[C@H]2C(=O)NC(=O)S2)C3=CC=CC=N3 (racemic) [rosiglitazone]
How it was run: as §1

[4] = compound: CN1C2=C(C3=C1C(=O)N(N=C3)CC4=CC(=CC=C4)N)SC(=C2)S(=O)C
How it was run: as §1

[5] = compound: CN1CCC(CNc2ccc3ncc(-c4cccc(OC(F)(F)F)c4)n3n2)CC1
How it was run: as §1

[6] = compound: CC[C@H](C)N1C=C(C2=C(C=C(C=C21)C3=CN=C(C=C3)N4CCNCC4)C(=O)NCC5=C(C=C(NC5=O)C)C)C
How it was run: as §1

[7] = compound: CN(C)CC(=O)Nc1ccc2[nH]c(=O)c3ccccc3c2c1
How it was run: as §1

Measured: log2 fold change

ACTN4 (UniProt K7EJH8)
inactive: [1] 0.026 | volasertib -0.018 | epoxomicin -0.029 | [2] 0.014 | [3] 0.049 | rosiglitazone -0.035 | [4] -0.019 | [5] 0.071

AAMP (UniProt Q13685)
inactive: [1] 0.072 | volasertib 0.051 | [6] -0.016 | epoxomicin -0.017 | [3] -0.016 | [7] 0.011 | [4] -0.004 | [5] 0.054

ACADVL isoform 3 (UniProt P49748)
inactive: [1] 0.119 | volasertib 0.099 | [6] -0.007 | epoxomicin 0.025 | [3] -0.014 | [7] 0.004 | [4] -0.054 | [5] -0.045

A2ML1 (UniProt A8K2U0)
inactive: [1] 0.034 | volasertib -0.111 | [6] 0.215 | [2] -0.042 | [7] -0.043

ACSS1 (UniProt Q9NUB1)
inactive: [1] -0.064 | volasertib -0.062 | [6] 0.074 | [2] -0.078 | [3] -0.042 | [7] 0.033 | rosiglitazone -0.027 | [4] -0.081 | [5] 0.092

ABHD6 (UniProt Q9BV23)
inactive: [1] 0.103 | volasertib 0.723 | [6] -0.079 | [3] 0.111 | [5] 0.096

ACP1 isoform 2 (UniProt P24666)
inactive: [1] 0.034 | volasertib 0.055 | [6] 0.063 | epoxomicin 0.012 | [3] -0.083 | [7] 0.05 | [4] 0.014 | [5] -0.07

ACVR1 (UniProt Q04771)
active: [5] 0.925
inactive: [1] -0.104 | volasertib -0.2 | epoxomicin 0.16 | [3] 0.065 | [7] -0.095 | [4] -0.111

ACACB (UniProt O00763)
inactive: [1] -0.006 | volasertib -0.468 | [6] 0.083 | epoxomicin -0.1 | [3] 0.086 | [7] 0.061 | [4] 0.308 | [5] 0.104

ACAA2 (UniProt K7ER88)
inactive: [1] 0.254 | volasertib 0 | [6] -0.134 | epoxomicin -0.221 | [7] -0.166 | rosiglitazone 0.164

AARSD1 isoform 3 (UniProt Q9BTE6)
active: volasertib -0.27
inactive: [1] -0.081 | [6] 0.019 | epoxomicin 0.083 | [3] -0.01 | [7] 0.037 | [4] 0.02 | [5] 0.021

ACSL5 isoform 3 (UniProt Q9ULC5)
active: [5] -0.361
inactive: [1] -0.013 | volasertib -0.088 | [6] 0.029 | epoxomicin 0.005 | [3] -0.068 | [7] -0.084 | [4] -0.216

ABCA3 (UniProt Q99758)
inactive: [1] -0.155 | volasertib -0.093 | epoxomicin 0 | [3] 0.168 | [7] 0.108 | [4] -0.013 | [5] -0.263

ACP1 (UniProt P24666)
inactive: [1] 0.084 | volasertib -0.102 | [6] -0.001 | epoxomicin 0.03 | [3] 0.077 | [7] 0.12 | [4] 0.099 | [5] -0.061

ABHD16A (UniProt O95870)
inactive: [1] 0.134 | volasertib 0.079 | [6] -0.01 | epoxomicin -0.008 | [3] -0.09 | [7] -0.018 | [4] -0.076 | [5] 0.283

ACAT1, A0A5F9ZHJ0
inactive: [1] 0.091 | volasertib 0.105 | [6] 0.018 | epoxomicin 0.121 | [3] 0.123 | rosiglitazone -0.015 | [4] -0.014 | [5] -0.067

ABRAXAS1 (UniProt Q6UWZ7)
inactive: [1] 0.117 | volasertib 0.07 | epoxomicin 0.012 | [2] 0.052 | [3] 0.207 | [7] -0.072 | rosiglitazone 0.118 | [4] 0.164 | [5] 0.198

AAR2 (UniProt Q9Y312)
inactive: [1] -0.032 | volasertib -0.016 | [6] -0.03 | epoxomicin 0.037 | [3] 0.106 | [7] -0.001 | [4] -0.087 | [5] -0.096

ACSF3 (UniProt Q4G176)
inactive: [1] -0.014 | volasertib -0.093 | [6] 0.039 | epoxomicin 0.152 | [3] -0.17 | [7] 0.008 | [4] 0.016 | [5] -0.116

ACO2 (UniProt Q99798)
inactive: [1] 0.043 | volasertib 0.037 | [6] 0.022 | epoxomicin 0.046 | [3] -0.115 | [7] 0.055 | [4] -0.118
active: [5] -0.344

ACIN1 (UniProt Q9UKV3)
inactive: [1] -0.017 | volasertib -0.056 | [6] -0.012 | epoxomicin -0.048 | [3] 0.004 | [7] -0.034 | [4] -0.021 | [5] -0.097

Pulled one by one from the entries so far (2):
ACSF3 (UniProt Q4G176)
inactive: [1] -0.014 | volasertib -0.093 | [6] 0.039 | epoxomicin 0.152 | [3] -0.17 | [7] 0.008 | [4] 0.016 | [5] -0.116

ABRAXAS1 (UniProt Q6UWZ7)
inactive: [1] 0.117 | volasertib 0.07 | epoxomicin 0.012 | [2] 0.052 | [3] 0.207 | [7] -0.072 | rosiglitazone 0.118 | [4] 0.164 | [5] 0.198

Next part

AAGAB (UniProt Q6PD74)
active: volasertib -0.551
inactive: [1] -0.106 | [6] 0.058 | epoxomicin 0.006 | [3] -0.018 | [7] 0.021 | [4] 0.125 | [5] -0.228

ACP2 (UniProt P11117)
inactive: [1] -0.156 | volasertib -0.151 | [6] -0.068 | epoxomicin 0.019 | [3] -0.02 | [7] -0.029 | [4] 0.013 | [5] -0.14

ABHD11 (UniProt Q8NFV4)
inactive: [1] -0.077 | volasertib -0.127 | [6] -0.003 | epoxomicin 0.272 | [3] 0.086 | [7] 0.007 | [4] -0.033 | [5] -0.126

ACTG1 (UniProt K7EM38)
inactive: [1] 0.201 | volasertib -1.63 | epoxomicin -0.443 | [3] -0.216 | [7] -0.019 | [4] 0.012 | [5] -0.302

ACBD6 (UniProt Q9BR61)
active: volasertib -0.473
inactive: [1] -0.032 | [6] 0.103 | epoxomicin 0.05 | [3] -0.11 | [7] 0.141 | [4] -0.099 | [5] 0.046

ACAD10 isoform 5 (UniProt Q6JQN1)
inactive: [2] -0.117 | [7] 0.072 | [4] -0.046

ACTG1 (UniProt I3L4N8)
inactive: [1] 0.051 | [6] -0.03 | [2] 0.062 | [4] -0.163

ACTB, A0A2R8YEA7
inactive: [1] -0.007 | [6] 0.057 | [2] 0.046 | [7] 0.087 | rosiglitazone 0.019 | [4] 0.127

ABCC10 (UniProt Q5T3U5)
inactive: volasertib -0.075 | [6] 0.188 | epoxomicin 0.011 | [2] -0.08 | [3] -0.116 | [7] 0.01 | rosiglitazone 0.032 | [4] -0.095 | [5] 0.036

ABCB5 (UniProt Q2M3G0)
inactive: [6] 0.05 | [2] -0.018 | rosiglitazone 0.022

ABRACL (UniProt Q9P1F3)
inactive: [6] -0.024 | rosiglitazone 0.04
